No constants are given. Whether binding was seen depends on the method and setting. Binding seen in cells or lysates may run through a third protein. Here binding means that the protein was enriched with, or labelled near, the bait; the list need not be complete.
Target: Oct4 (Pou5f1), endogenous in mouse embryonic stem cells (mouse (endogenous in mouse ESCs)) (UniProt P20263)
Experiment: affinity purification with mass spectrometry; multimerised WT octamer dsDNA on FG magnetic beads (mutant DNA as control) incubated with Oct1 deficient mouse ESC lysate, 4 C, 4 h; washes 100, 200, 300 mM KCl; elution with 300 mM KCl and free DNA; LC-MS/MS, N = 3; Oct4 is held through the DNA

- binding: binds
B1: Kdm2b, endogenous in mouse embryonic stem cells (protein, UniProt Q6P1G2 1-1309)
chain: MEAEKDSGRRLRAIDRQRYDENEDLSDVEEIVSVRGFSLEEKLRSQLYQGDFVHAMEGKDFNYEYVQREALRVPLVFRDKDGLGIKMPDPDFTVRDVKLLVGSRRLVDVMDVNTQKGTEMSMSQFVRYYETPEAQRDKLYNVISLEFSHTKLEHLVKRPTVVDLVDWVDNMWPQHLKEKQTEATNALAEMKYPKVKKYCLMSVKGCFTDFHIDFGGTSVWYHVFRGGKIFWLIPPTLHNLALYEEWVLSGKQSDIFLGDRVERCQRIELKQGYTFFIPSGWIHAVYTPVDSLVFGGNILHSFNVPMQLRIYEIEDRTRVQPKFRYPFYYEMCWYVLERYVYCVTQRSYLTQEYQRELMLIDAPRKTSVDGFSSDSWLDMEEESCEQQPQEEEEEEEDKEEEGDGADKTPKPPTDDPTSPTSTPPEDQDSTGKKPKAPAIRFLKRTLSNESEESVKSTSMPTDDPKTPTGSPATEVSTKWTHLTEFELKGLKALVEKLESLPENKKCVPEGIEDPQALLEGVKNVLKEHVDDDPTLAITGVPVVSWPKKTAKNRVVGRPKGKLGPASAVKLAANRTTAGARRRRTRCRKCEACLRTECGECHFCKDMKKFGGPGRMKQSCIMRQCIAPVLPHTAVCLVCGEAGKEDTVEEEEGKFNLMLMECSICNEIIHPGCLKIKESEGVVNDELPNCWECPKCNHAGKTGKQKRGPGFKYASNLPGSLLKEQKMNRDNKEGQEPAKRRSECEEAPRRRSDEHPKKVPADGILRRKSDDVHLRRKRKYEKPQELSGRKRASSLQTSPGSSSHLSPRPPLGSSLSPWWRSSLTYFQQQLKPGKEDKLFRKKRRSWKNAEDRLSLANKPLRRFKQEPEDDLPEAPPKTRESDQSRSSSPTAGPSTEGAEGPEEKKKVKMRRKRRLVNKELSKELSKELNHEIQKTESTLAHESQQPIKSEPESENDEPKRPLSHCERPHRFSKGLNGTPRELRHSLGPGLRSPPRVMSRPPPSASPPKCIQMERHVIRPPPISPPPDSLPLDDGAAHVMHREVWMAVFSYLSHRDLCVCMRVCRTWNRWCCDKRLWTRIDLNRCKSITPLMLSGIIRRQPVSLDLSWTNISKKQLSWLINRLPGLRDLVLSGCSWIAVSALCSSSCPLLRTLDVQWVEGLKDAQMRDLLSPPTDNRPGQMDNRSKLRNIVELRLAGLDITDVSLRLIIRHMPLLSKLQLSYCNHINDQSINLLTAVGTTTRDSLTEVNLSDCNKVTDLCLSFFKRCGNICHIDLRYCKQVTKEGCEQFIAEMSVSVQFGQVEEKLLQKLS
